Results are given in words; binding and its absence hold for the method and conditions named. Binding seen in cells or lysates may run through a third protein. Some entries that bind do so weakly or less than the wild type. For part of these data: Where a sequence is shown, tags or fusion partners need not be part of it.
Experiments:
[1] = biological target: T1, CCCTC-binding factor (mouse (endogenous in MEFs)) (UniProt Q61164); assay: co-IP
T1 sequence: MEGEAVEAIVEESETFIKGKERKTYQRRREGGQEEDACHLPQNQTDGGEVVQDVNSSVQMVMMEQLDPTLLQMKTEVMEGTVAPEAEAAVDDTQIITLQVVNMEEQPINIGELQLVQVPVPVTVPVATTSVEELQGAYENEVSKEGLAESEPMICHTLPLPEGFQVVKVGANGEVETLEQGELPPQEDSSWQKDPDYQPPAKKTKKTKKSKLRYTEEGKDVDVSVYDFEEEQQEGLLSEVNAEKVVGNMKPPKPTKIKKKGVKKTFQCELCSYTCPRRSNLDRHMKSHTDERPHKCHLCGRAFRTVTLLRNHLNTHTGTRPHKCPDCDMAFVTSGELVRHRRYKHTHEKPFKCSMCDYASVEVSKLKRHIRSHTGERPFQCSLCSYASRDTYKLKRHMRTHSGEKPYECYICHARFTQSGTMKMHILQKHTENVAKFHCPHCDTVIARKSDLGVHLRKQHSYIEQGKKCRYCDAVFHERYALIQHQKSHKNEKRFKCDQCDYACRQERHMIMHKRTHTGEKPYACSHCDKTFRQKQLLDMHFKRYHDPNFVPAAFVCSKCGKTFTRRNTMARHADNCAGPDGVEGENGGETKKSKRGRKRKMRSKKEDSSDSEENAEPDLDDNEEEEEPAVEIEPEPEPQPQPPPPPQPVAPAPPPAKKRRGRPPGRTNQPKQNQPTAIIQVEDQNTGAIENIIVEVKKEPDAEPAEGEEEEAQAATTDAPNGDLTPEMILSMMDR

Chains of the proteins cited; added tags and fusions are not shown.
UniProt Q64511: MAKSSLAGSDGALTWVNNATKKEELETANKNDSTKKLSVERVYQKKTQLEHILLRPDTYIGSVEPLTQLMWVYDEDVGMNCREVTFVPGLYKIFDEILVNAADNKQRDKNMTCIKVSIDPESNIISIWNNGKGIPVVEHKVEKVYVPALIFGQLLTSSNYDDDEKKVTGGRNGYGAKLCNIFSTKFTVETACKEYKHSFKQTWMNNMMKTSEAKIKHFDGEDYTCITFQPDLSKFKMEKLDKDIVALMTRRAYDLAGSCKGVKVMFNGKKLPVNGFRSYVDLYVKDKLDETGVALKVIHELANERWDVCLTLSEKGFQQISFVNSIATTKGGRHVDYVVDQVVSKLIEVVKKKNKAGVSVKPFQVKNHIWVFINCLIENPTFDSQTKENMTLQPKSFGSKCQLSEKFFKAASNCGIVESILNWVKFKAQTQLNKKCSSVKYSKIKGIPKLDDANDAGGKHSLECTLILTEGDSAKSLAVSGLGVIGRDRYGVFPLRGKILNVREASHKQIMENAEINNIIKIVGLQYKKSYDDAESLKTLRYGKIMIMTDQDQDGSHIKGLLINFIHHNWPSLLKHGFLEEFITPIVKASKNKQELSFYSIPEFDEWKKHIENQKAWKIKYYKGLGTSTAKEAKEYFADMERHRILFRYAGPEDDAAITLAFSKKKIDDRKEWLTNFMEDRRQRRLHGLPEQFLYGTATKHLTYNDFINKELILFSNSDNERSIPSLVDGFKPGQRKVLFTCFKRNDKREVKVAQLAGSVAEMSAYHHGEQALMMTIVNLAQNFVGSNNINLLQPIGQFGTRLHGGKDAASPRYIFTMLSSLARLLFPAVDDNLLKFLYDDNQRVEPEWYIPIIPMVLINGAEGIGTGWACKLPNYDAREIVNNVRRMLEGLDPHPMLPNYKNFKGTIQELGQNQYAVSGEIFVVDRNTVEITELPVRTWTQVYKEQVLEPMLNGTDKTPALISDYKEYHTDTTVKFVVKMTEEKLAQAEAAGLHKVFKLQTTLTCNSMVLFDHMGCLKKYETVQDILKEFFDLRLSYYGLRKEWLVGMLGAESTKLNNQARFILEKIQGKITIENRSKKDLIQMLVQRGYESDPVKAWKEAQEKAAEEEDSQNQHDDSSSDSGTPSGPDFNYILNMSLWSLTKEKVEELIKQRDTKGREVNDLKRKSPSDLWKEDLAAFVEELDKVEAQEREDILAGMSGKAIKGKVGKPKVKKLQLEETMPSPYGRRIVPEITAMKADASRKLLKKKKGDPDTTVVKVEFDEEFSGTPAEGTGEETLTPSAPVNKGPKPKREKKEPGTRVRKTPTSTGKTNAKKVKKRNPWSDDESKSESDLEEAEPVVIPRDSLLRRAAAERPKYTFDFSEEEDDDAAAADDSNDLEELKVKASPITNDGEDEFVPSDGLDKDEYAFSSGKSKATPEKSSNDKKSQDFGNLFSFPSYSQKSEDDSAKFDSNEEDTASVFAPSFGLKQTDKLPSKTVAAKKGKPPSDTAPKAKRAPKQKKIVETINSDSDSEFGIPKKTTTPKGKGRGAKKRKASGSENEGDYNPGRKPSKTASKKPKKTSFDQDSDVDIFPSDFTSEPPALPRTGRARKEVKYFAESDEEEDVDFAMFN
UniProt E9QAP7: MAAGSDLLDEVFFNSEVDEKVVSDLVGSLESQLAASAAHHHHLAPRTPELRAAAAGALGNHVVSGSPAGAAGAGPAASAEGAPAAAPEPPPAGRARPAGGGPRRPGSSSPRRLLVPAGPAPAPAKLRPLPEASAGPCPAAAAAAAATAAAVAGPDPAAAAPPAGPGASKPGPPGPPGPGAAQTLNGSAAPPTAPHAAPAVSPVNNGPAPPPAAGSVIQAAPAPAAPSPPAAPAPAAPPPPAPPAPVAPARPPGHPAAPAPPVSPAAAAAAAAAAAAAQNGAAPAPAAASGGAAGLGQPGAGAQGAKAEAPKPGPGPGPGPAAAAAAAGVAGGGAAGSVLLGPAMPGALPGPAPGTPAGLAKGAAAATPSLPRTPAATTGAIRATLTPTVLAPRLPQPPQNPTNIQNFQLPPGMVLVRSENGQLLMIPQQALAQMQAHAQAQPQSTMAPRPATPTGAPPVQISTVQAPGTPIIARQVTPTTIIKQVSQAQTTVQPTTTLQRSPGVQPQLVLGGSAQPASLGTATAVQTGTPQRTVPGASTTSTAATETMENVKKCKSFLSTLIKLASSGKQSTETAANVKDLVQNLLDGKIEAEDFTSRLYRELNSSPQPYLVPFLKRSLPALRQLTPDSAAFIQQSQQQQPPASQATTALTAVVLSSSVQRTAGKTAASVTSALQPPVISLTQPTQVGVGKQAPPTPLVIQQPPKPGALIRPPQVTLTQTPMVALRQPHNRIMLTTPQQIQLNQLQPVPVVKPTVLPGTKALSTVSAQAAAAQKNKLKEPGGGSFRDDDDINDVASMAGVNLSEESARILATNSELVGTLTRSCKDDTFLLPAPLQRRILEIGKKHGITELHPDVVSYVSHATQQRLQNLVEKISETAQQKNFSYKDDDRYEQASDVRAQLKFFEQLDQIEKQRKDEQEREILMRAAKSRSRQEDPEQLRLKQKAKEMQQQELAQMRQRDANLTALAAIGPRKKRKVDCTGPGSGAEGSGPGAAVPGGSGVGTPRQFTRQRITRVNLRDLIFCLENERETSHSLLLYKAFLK
UniProt Q9CW03: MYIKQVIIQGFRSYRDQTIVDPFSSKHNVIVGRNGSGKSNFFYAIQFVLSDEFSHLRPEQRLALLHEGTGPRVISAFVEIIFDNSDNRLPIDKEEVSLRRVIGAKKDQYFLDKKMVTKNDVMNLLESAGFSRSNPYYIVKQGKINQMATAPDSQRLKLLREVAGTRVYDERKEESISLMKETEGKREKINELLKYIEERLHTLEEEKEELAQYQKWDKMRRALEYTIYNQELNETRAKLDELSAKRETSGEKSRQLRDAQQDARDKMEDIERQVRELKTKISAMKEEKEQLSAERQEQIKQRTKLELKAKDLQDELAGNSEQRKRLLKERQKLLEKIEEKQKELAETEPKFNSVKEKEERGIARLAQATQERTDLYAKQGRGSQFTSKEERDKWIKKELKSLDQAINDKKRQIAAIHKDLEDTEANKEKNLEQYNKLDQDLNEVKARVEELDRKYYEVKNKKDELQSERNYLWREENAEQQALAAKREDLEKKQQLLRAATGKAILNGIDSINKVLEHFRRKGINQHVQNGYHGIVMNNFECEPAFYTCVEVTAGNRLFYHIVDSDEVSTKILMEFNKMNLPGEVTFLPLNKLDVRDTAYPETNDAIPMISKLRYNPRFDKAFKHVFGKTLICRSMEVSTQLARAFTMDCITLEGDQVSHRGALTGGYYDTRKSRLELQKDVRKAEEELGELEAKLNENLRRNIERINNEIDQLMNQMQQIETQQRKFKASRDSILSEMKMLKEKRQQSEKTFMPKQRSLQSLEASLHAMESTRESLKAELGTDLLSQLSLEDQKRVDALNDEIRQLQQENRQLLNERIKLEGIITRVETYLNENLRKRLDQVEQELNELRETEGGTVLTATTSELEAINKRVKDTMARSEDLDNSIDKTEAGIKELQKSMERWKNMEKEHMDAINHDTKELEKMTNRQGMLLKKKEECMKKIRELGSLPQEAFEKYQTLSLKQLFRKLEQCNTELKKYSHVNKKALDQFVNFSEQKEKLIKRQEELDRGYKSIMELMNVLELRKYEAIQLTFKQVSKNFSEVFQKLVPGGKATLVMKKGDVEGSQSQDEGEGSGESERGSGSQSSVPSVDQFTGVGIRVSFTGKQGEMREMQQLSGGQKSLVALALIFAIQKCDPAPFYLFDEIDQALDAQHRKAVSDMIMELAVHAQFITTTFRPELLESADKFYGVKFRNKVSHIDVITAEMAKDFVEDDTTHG
UniProt Q8K0H5: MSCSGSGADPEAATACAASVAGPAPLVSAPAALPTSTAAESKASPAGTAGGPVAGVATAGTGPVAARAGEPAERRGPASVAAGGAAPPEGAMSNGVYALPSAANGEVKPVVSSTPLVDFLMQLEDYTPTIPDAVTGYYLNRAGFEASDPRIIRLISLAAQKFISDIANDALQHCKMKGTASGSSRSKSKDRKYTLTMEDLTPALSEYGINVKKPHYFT
UniProt Q62311: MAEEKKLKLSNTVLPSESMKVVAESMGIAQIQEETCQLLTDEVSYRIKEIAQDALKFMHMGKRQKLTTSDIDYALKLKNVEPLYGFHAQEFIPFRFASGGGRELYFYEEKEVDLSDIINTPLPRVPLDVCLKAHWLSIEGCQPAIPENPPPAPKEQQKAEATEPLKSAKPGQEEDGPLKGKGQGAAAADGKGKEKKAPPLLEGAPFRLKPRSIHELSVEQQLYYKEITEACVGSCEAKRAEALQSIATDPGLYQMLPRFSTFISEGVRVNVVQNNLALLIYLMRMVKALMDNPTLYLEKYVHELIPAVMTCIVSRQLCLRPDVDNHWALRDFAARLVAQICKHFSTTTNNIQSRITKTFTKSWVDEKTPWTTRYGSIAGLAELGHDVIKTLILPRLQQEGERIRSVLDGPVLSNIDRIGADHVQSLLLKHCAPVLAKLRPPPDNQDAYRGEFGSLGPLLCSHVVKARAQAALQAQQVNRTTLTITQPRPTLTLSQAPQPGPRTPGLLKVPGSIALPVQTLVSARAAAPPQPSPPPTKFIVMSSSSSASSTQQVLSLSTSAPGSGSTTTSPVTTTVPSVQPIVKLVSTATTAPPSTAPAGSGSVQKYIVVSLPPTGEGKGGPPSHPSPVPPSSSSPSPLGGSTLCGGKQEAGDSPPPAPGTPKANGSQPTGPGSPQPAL

[2] = biological target: T2, ERCC1 (mouse (endogenous in MEFs)) (UniProt P07903); assay: co-IP
T2 sequence: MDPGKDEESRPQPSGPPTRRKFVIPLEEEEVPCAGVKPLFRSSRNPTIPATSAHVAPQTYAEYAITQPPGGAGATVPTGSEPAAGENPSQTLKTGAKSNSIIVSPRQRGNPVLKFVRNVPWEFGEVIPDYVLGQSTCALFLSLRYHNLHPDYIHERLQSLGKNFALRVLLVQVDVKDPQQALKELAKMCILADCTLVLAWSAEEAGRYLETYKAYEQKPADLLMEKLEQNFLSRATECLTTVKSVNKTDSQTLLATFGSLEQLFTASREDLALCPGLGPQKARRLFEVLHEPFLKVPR

[3] = biological target: T3, biotin-tagged XPF (mouse (endogenous knock-in in MEFs)) (UniProt Q9QZD4); assay: pull-down
T3 sequence (chain, biotin on the 15 aa tag (by the BirA ligase in vivo)): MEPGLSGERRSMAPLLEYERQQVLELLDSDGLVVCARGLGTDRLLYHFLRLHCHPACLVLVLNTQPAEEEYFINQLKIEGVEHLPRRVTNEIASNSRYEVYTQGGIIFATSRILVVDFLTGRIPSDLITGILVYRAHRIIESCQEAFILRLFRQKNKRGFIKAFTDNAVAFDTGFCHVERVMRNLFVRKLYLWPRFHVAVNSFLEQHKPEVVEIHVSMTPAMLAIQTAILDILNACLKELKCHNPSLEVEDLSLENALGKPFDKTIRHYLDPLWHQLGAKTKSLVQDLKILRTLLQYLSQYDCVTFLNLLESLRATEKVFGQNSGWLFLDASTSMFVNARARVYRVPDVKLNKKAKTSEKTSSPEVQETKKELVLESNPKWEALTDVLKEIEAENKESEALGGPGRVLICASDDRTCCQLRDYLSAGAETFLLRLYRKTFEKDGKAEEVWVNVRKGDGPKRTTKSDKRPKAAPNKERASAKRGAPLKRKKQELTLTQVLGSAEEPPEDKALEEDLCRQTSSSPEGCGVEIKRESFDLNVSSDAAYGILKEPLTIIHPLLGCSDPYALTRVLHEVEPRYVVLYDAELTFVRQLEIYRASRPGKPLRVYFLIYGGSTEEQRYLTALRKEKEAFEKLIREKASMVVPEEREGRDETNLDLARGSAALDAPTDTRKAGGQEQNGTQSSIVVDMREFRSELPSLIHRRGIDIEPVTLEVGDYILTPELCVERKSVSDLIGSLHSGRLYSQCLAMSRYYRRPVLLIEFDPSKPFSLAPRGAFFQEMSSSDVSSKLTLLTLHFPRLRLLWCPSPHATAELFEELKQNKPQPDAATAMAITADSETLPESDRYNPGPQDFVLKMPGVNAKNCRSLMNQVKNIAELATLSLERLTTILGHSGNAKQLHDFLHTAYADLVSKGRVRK

[4] = biological target: Topoisomerase IIβ (mouse (endogenous in MEFs)) (UniProt Q64511); assay: co-IP

Substance	binding [1]	binding [2]	binding [3]	binding [4]
Topoisomerase IIβ (from UniProt Q64511 1-1612)	binds	binds	binds	
TAF4 (from UniProt E9QAP7 1-1042)			binds	
SMC3 (from UniProt Q9CW03 1-1217)		binds	binds	binds
TAF10 (from UniProt Q8K0H5 1-218)			binds	
TAF6 (from UniProt Q62311 1-678)			binds	
